# In publication PMC8817016:
# The chains behind the UniProt entries cited, without tags or fusion partners.
# UniProt Q7Z434: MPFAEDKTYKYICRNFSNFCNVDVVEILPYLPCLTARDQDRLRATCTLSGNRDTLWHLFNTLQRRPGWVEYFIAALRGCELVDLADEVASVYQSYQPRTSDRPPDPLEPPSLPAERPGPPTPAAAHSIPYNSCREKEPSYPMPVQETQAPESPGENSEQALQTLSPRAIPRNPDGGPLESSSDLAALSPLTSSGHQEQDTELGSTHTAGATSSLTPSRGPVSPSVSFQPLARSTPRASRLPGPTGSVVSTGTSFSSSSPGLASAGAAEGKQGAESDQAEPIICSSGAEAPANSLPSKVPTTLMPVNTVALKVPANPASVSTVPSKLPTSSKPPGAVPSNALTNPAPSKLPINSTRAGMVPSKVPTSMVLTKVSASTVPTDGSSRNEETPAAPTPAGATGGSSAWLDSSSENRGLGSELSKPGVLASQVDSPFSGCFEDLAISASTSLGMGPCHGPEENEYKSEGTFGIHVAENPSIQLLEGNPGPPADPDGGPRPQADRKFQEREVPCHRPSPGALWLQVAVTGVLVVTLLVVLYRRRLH
# UniProt F5HF68: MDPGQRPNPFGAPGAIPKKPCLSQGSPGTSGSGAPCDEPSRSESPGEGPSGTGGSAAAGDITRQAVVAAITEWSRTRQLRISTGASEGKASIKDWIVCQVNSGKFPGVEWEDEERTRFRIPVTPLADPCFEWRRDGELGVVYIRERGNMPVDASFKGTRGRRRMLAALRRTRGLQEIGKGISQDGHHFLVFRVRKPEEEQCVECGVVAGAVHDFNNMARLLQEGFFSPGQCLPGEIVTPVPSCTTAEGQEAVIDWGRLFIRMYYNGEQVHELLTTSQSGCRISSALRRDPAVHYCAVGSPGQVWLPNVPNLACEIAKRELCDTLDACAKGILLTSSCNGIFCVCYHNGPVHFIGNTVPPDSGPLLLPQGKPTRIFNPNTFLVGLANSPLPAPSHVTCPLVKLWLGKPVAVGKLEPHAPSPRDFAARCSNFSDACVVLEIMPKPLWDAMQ
# No constants are given. Whether binding was seen depends on the method and setting. For some assays here: Binding seen in cells or lysates may run through a third protein. Some entries that bind do so weakly or less than the wild type. For some assays here: Tags and fused reporters may be left off the sequences shown.
# How the values were obtained:
# [1] = biological target: T1, tubulin polymerization promoting protein 3 (TPPP3), endogenous in mDRM of iBCBL-1 cells (human (endogenous in iBCBL-1)) (UniProt Q9BW30); experiment: far-Western, overlay or dot blot; mDRM proteins of iBCBL-1 cells (Dox 2 days) separated by 2D gel electrophoresis, transferred to PVDF, blocked with 5% nonfat dry milk in TBS-T, incubated with 1 µg/ml purified vIRF-1-T7 or EGFP-T7 for 3 h at room temperature; HRP-conjugated anti-T7 antibody; reactive spots identified by MALDI-TOF mass spectrometry; only the binder purified
# T1 sequence: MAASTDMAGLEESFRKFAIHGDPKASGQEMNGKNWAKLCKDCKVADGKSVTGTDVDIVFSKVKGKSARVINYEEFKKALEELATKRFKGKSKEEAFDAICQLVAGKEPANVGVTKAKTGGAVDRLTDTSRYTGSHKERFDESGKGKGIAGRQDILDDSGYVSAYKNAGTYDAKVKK
# [2] = biological target: T2, trifunctional enzyme subunit β, endogenous in mDRM of iBCBL-1 cells (human (endogenous in iBCBL-1)) (UniProt P55084); experiment: as above
# T2 sequence: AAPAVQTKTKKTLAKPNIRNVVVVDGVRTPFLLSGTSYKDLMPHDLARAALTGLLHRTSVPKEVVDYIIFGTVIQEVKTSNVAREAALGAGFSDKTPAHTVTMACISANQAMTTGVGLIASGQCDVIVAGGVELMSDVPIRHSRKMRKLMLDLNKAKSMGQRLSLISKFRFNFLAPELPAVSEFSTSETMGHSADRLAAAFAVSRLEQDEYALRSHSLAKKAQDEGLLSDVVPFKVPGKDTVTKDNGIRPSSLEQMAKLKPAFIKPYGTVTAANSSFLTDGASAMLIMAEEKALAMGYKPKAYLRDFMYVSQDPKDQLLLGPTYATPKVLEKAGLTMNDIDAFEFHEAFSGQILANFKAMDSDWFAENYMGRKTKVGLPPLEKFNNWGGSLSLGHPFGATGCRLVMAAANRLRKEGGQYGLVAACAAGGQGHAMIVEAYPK
# [3] = biological target: T3, ATP synthase γ, endogenous in mDRM of iBCBL-1 cells (human (endogenous in iBCBL-1)) (UniProt P36542); experiment: as above
# T3 sequence: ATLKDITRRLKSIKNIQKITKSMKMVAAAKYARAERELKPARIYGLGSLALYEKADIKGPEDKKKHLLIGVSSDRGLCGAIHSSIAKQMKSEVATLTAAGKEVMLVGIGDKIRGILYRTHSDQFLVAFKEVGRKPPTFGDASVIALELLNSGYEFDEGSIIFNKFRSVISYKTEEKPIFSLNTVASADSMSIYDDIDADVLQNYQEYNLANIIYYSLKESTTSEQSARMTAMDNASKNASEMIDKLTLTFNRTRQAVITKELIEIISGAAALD
# GST-TPPP3 = biological target: T4, GST-TPPP3 (UniProt Q9BW30); experiment: pull-down; GST or GST-fusion protein (1 µg) on glutathione sepharose-4B beads incubated with purified vIRF-1-T7 at 4 °C overnight in PBS plus 1% Triton X-100; vIRF-1 detected by anti-vIRF-1 antibody; both purified
# T4 sequence: T1 sequence
# Flag-MAVS = Flag-MAVS (UniProt Q7Z434); experiment: co-IP; total-cell extracts of 293T cells (wild type or MAVS KO) co-transfected with vIRF-1, TUFM-V5 and/or Flag-MAVS for 24 h; anti-V5 immunoprecipitation (Fig. 1F), bait of Fig. 1G and 1H not told; RIPA-B buffer lacking SDS
Substance,binding [1],binding [2],binding [3],binding (GST-TPPP3),binding (Flag-MAVS)
"vIRF-1-T7 (viral IFN regulatory factor 1 of human herpesvirus 8, T7-tagged, purified recombinant) (from UniProt F5HF68 1-449)",binds,binds,binds,binds,
"vIRF-1, transfected in 293T cells (from UniProt F5HF68 1-449)",,,,,binds
